# Experimental data taken from PubChem BioAssay AID1487 (National Center for Advancing Translational Sciences (NCATS), 2009).
# Some of the results follow. Shown are side measurements of this screen, not its main read-out; they come without a call. Compounds called inactive in the main read-out are mostly missing here. Words in brackets tell the shape of the fitted curve; partial curves, single points and poor fits give uncertain potencies.
# Assay: qHTS Assay for Modulators of Lamin A Splicing
# Conditions: HeLa LMNA splicing GFP/RFP minigene ratio, 48 h
# Outline: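 S3 HeLa cells stably expressing lamin A-EGFP splicing minigene plus DsRed2, 600 cells/well, 48 h compound exposure at 37C. Laser-scanning cytometry; analysed as GFP (500-530 nm)/RFP (575-640 nm) total intensity ratio; 0.5% DMSO vehicle.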
# [1] = measured here: RFP viability control channel
# [2] = measured here: GFP splicing reporter channel
Compound,AC50 [1],AC50 [2]
COc1ccc2c(CN3CCN(S(=O)(=O)c4cccs4)CC3)cc(=O)oc2c1,"12.6 µM [rising, partial curve]",
COc1ccc(-c2cnn3c(N)c(S(=O)(=O)C(C)(C)C)cnc23)cc1,"22.4 µM [falling, single point]","35.5 µM [falling, single point]"
NNC(=O)COc1ccc(C2SCCS2)cc1,"2.82 µM [falling, partial curve, poor fit]",
CCOc1ccc(NC(=O)C2CCN(C(=O)N3CC(C)Oc4ccc(Cl)cc43)CC2)cc1 (stereo unspecified),"35.5 µM [rising, single point]","15.8 µM [rising, single point]"
COc1ccc(S(=O)(=O)N2CCOCC2)cc1Br,"7.08 µM [falling, partial curve, poor fit]","0.0251 µM [falling, full curve, poor fit]"
Cc1ccc(-n2cnc3scc(-c4cccs4)c3c2=O)cc1,"11.2 µM [rising, single point]",
Cc1ncc(CN2CCCC(CCC(=O)NCc3ccccc3F)C2)s1 (stereo unspecified),"2 µM [falling, full curve, poor fit]",
CCOc1cc(-c2c(C#N)c(N)nc3c2CCCC3)ccc1O,"15.8 µM [rising, partial curve, poor fit]",
CC(C)CC(=O)Nc1nnc(S(=O)(=O)N(CC(C)C)c2ccccc2)s1,,"1.26 µM [rising, full curve]"
CCN(CC)C(=O)CN1C(=O)C2CC=C(Cl)CC2C1=O (stereo unspecified),"12.6 µM [falling, partial curve, poor fit]",
CC(C)CN(C(=O)CN1CCCCCC1)c1c(N)n(CC(C)C)c(=O)[nH]c1=O,,"1.12 µM [rising, full curve, poor fit]"
O=S(=O)(Nc1ccc(O)c(Sc2nc3ccccc3s2)c1)c1ccc(Cl)cc1,"15.8 µM [rising, single point]","11.2 µM [rising, single point]"
O=C(CN1CCCCC1)Nc1ccc(NC(=O)c2ccccc2Cl)cc1Cl,"0.178 µM [rising, full curve, poor fit]",
CCOC(=O)c1ccccc1NC(=O)c1ccccc1SC,"28.2 µM [rising, single point]",
Cc1ccc(OCC(=O)NC2CCCc3ccccc32)c(C)c1 (stereo unspecified),"25.1 µM [rising, single point]",
O=S1(=O)CC2N=C(N(Cc3c(F)cccc3Cl)c3ccccc3F)SC2C1 (stereo unspecified),"8.91 µM [rising, partial curve]",
CC(C)C(=O)OCC(=O)Nc1ccc(N=Nc2ccccc2)cc1,"35.5 µM [rising, single point]",

# Of the compounds above, 5 have a Cl atom:
Compound,AC50 [1],AC50 [2]
CCOc1ccc(NC(=O)C2CCN(C(=O)N3CC(C)Oc4ccc(Cl)cc43)CC2)cc1 (stereo unspecified),"35.5 µM [rising, single point]","15.8 µM [rising, single point]"
CCN(CC)C(=O)CN1C(=O)C2CC=C(Cl)CC2C1=O (stereo unspecified),"12.6 µM [falling, partial curve, poor fit]",
O=S(=O)(Nc1ccc(O)c(Sc2nc3ccccc3s2)c1)c1ccc(Cl)cc1,"15.8 µM [rising, single point]","11.2 µM [rising, single point]"
O=C(CN1CCCCC1)Nc1ccc(NC(=O)c2ccccc2Cl)cc1Cl,"0.178 µM [rising, full curve, poor fit]",
O=S1(=O)CC2N=C(N(Cc3c(F)cccc3Cl)c3ccccc3F)SC2C1 (stereo unspecified),"8.91 µM [rising, partial curve]",
